In PubChem BioAssay AID493014 (National Center for Advancing Translational Sciences (NCATS), 2011) one finds AC50 data, which are given here for 63 molecules.

The list shows a part of the results. Further columns of the screen follow, without active or inactive calls. Compounds called inactive in the main read-out are mostly missing here. Words in brackets tell the shape of the fitted curve; partial curves, single points and poor fits give uncertain potencies.

The assay is described as follows: qHTS Assay to Find Inhibitors of Chronic Active B-Cell Receptor Signaling. As to conditions: ABC-DLBCL IkBa-CBG/CBR reporter, luminescence ratio (green luciferase fused to IkBa over red control in TMD8 lymphoma cells), 4 h. In a few lines:
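Concentration-response series (up to 46 uM) were applied to TMD8 dual-reporter cells for 4 h at 37C with doxycycline. Green/red ratio, after filter-overlap correction, defined %Activity; red signal alone was normalised to basal cells and zero luminescence.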
On the technique in general: In qHTS, concentration-response curves come from the screen itself.

Setting [1] is: measured here: CBR red luminescence, cell number.
[2] abbreviates: measured here: IkBa-CBG green luminescence.

Regarding `CCOC(=O)c1sc(NC(=O)/C=C/c2ccc(F)cc2)nc1C`, the AC50 – broadly, the concentration at which the activity in the assay is half-maximal – under setting [1] was 0.282 µM [falling, full curve, poor fit].

Regarding `Cc1ccnc(NC(=S)NC(=O)c2cncc(Br)c2)c1`, the AC50 under setting [1] was 1.64 µM [rising, full curve, poor fit]. Still for that read-out and setting: for `CCOc1ccc(C2=CS/C(=C(\C#N)c3nnc4n3CCCCC4)N2CC)cc1` the value was 3.66 µM [falling, full curve, poor fit]; for `COc1ccccc1-c1nnc(NC(=O)c2ccc(S(=O)(=O)N(C)C)cc2)o1`, 3.26 µM [falling, partial curve, poor fit].

Turning to `Nc1ccc2nc(CCCO)[nH]c2c1`, the AC50 under setting [1] was 17.8 µM [falling, single point].

As to `CCOC(=O)c1cnn(-c2nc3c(C)cccc3s2)c1C`, under setting [1], the AC50 is 10.3 µM [rising, partial curve]. With `Nc1cc(OC(=O)c2cccs2)nn1S(=O)(=O)c1ccccc1`, the AC50 under setting [1] is 20.6 µM [falling, partial curve, poor fit]. On the same count and under the same terms, for `Cc1ccsc1C=Nc1ccc(O)cc1` the value was 6.31 µM [falling, single point]; for `Cc1ccn2c(NCc3ccccc3)c(-c3cccc(SC4CCCCC4)c3)nc2c1`, 29.1 µM [falling, single point]; for `O=C(CSc1ccccc1)NCc1ccc(F)cc1`, 1 µM [rising, full curve, poor fit].

For `COc1ccc(S(=O)(=O)CCC(=O)N(C)c2ccc(OC)cc2OC)cc1`, under setting [1], the AC50 is 29.1 µM [rising, single point]. Turning to `COc1cc(OC)c(NC(=O)c2cc(S(=O)(=O)N3CCOCC3)cn2C)cc1Cl`, the AC50 under setting [1] is 6.31 µM [rising, single point]. On the same count and under the same terms, for `CC(=O)c1ccc(OCc2cc(C(=O)NC3CCCCC3)no2)cc1` the value was 5.01 µM [falling, full curve]; for `CCOc1ccccc1N`, 29.1 µM [falling, single point]; for `COc1ccccc1C(=O)n1nc(-c2ccccc2)nc1N`, 4.61 µM [falling, full curve, poor fit]. With `CC(C)Nc1c(N)c(=O)oc2ccccc12`, the concentration at half-maximal activity (AC50) under setting [1] is 10 µM [falling, partial curve]. The same measure, in the same setting: for `CC1CCN(C(=O)c2cc(-c3ccco3)on2)CC1` the value was 0.794 µM [rising, full curve, poor fit]; for `Cc1ccc(CN(Cc2ccco2)C(=S)NCC(=O)NCc2cccnc2)cc1`, 0.224 µM [falling, full curve, poor fit]; for `COc1cccc(-c2sc3ccc(OC)cc3c2C#CCCO)c1`, 4.11 µM [rising, full curve, poor fit].

In the case of `Nc1cc(C(=O)OCC(=O)Nc2cccc(S(=O)(=O)N3CCOCC3)c2)ccc1Cl`, the AC50 under setting [1] was 16.4 µM [falling, single point]. For `COc1ccc(-c2cc(C(=O)NCc3ccccc3)no2)cc1OC`, under setting [1], the AC50 is 10 µM [falling, partial curve]. Regarding `CCc1ccc(OC(=O)c2ccn(CC)n2)cc1`, under setting [1], the AC50 is 11.2 µM [rising, single point]. As for `CCOc1ccccc1N1CCN(C(=O)c2ccc(Cl)c(S(=O)(=O)N3CCCCC3)c2)CC1`, under setting [1], the AC50 was 14.6 µM [falling, partial curve, poor fit]. On the same count and under the same terms, under `c1cn(C23CC4CC(CC(C4)C2)C3)cn1` stands 20.6 µM [rising, single point]. On to `C=CCOc1c(Cl)cc(/C=N/O)cc1OC`, for which the concentration at half-maximal activity (AC50) under setting [1] was 10 µM [rising, partial curve]. Turning to `Cc1nc([N+](=O)[O-])cn1-c1ccc(N)cc1`, the half-maximal activity concentration (AC50) under setting [1] was 32.6 µM [rising, partial curve, poor fit]. As for `Cc1ccc(C(=O)NCCSc2ccc(Cl)cc2)cc1[N+](=O)[O-]`, under setting [1], the AC50 was 0.562 µM [rising, full curve]. Still for that read-out and setting: under `Cc1cccc(NC(=O)C(C)N2C(=O)C3C4CC(C(Br)C4Br)C3C2=O)c1` (stereo unspecified) stands 35.5 µM [falling, single point].

With `CCOc1cc(C=C(C(=O)OC)C(=O)OC)ccc1OCc1ccc([N+](=O)[O-])cc1`, the concentration at half-maximal activity (AC50) under setting [1] is 8.2 µM [falling, partial curve]. As for `Cc1csc(NC(=O)CCC(=O)N(CC(=O)NC2CCCCC2)c2ccccc2)n1`, the concentration at half-maximal activity (AC50) under setting [1] was 6.31 µM [falling, full curve]. As for `CC[C@]12c3[nH]c4ccc(Cl)cc4c3CCN1C(=O)[C@@H](CC(=O)NCc1cccc(C(F)(F)F)c1)C[C@@H]2C(=O)N1CCN(C(=O)c2ccco2)CC1`, the half-maximal activity concentration (AC50) was 3.26 µM [falling, full curve] under setting [1] and 7.31 µM [rising, partial curve, poor fit] under setting [2]. With `CN1C(=O)NC(c2cccc([N+](=O)[O-])c2)C2=C1CCCC2=O` (stereo unspecified), the concentration at half-maximal activity (AC50) under setting [1] is 20 µM [falling, single point]. On the same count and under the same terms, under `O=C(Nc1nc2ccccc2[nH]1)C12CC3CC(CC(C3)C1)C2` stands 6.51 µM [rising, single point]; under `Cc1cc(Cl)cc2sc(NC(=O)c3ccco3)nc12`, 11.2 µM [falling, partial curve]; under `C=C(C)C(C)(C#CCN1CCCC1)OC(C)=O` (stereo unspecified), 13 µM [falling, partial curve, poor fit].

With `CCC1CCCCN1S(=O)(=O)c1ccc(NC(=O)c2nc(S(C)(=O)=O)ncc2Cl)cc1` (stereo unspecified), the AC50 under setting [1] was 35.5 µM [falling, single point]. Consider `CCCCC#Cc1ccc(C(=O)NNC(=O)Nc2cc(Cl)cc(Cl)c2)o1`, for which the AC50 under setting [1] is 35.5 µM [falling, partial curve, poor fit]. Regarding `NC(=S)NN=C(Cc1ccccc1)Cc1ccccc1`, the concentration at half-maximal activity (AC50) is 25.1 µM [falling, single point] under setting [1] and 17.8 µM [falling, single point] under setting [2]. As to `COc1ccccc1Oc1ccc(NC(=O)c2ccccc2)cc1`, the AC50 under setting [1] was 15.8 µM [falling, single point]. On the same count and under the same terms, under `C#CCOCCOCCOCCNc1nc(N2CCN(C(=O)CCCCCCCCCCNC(=O)[C@@H](CCC(=O)O)n3cc(CCCCCN)nn3)CC2)nc(N2CCN(C(=O)CCCCCCCCCCNC(=O)[C@H](CO)n3cc(CCCCCN)nn3)CC2)n1` stands 20.6 µM [rising, partial curve, poor fit]. The same measure, in the same setting: under `O=S(=O)(c1ccc(Cl)cc1)n1cccn1` stands 4.47 µM [rising, partial curve, poor fit]; under `O=C(NC1CCCCC1)c1ccc(S(=O)(=O)c2ccccc2Cl)c([N+](=O)[O-])c1`, 32.6 µM [rising, partial curve, poor fit]; under `O=C(/C=C1\NC2(CCCC2)Cc2ccccc21)C(=O)N/N=C/c1ccc(O)c(O)c1`, 13 µM [falling, partial curve]. As for `CCN1CCN(Cc2c(O)ccc3c2O/C(=C\C=C\c2ccccc2OC)C3=O)CC1`, under setting [1], the AC50 was 3.26 µM [falling, partial curve].

Consider `CC(=O)Nc1cccc(NC(=O)COc2ccc3c(c2)OCO3)c1`, for which, under setting [1], the concentration at half-maximal activity (AC50) is 3.98 µM [falling, full curve].

Take `COc1ccc(-c2ccc(-c3nnc(Cc4ccc(OC)c(OC)c4)o3)cc2)cc1`: under setting [1], the AC50 was 35.5 µM [rising, single point]. Still for that read-out and setting: under `COCCNC(=O)c1ccc2c(c1)ncn2-c1ccc(F)c(F)c1` stands 3.98 µM [rising, full curve]. On the same count and under the same terms, for `N#Cc1ccc(-c2csc(NNC(=O)c3ccccc3)n2)cc1` the value was 35.5 µM [rising, single point]; for `OCCNCCSc1nc(C2CCCCC2)n(-c2ccccc2Cl)n1`, 22.4 µM [falling, partial curve, poor fit].

`Cc1cc(NC(=O)c2ccccc2)n(-c2nc3ccccc3[nH]2)n1`: the concentration at half-maximal activity (AC50) under setting [1] was 0.251 µM [falling, full curve, poor fit]. Same read-out and setting: for `Cc1onc(-c2ccc3c(c2)OCO3)c1-c1ccc2[nH]ccc2c1` the value was 25.1 µM [falling, partial curve, poor fit]. Turning to `CCCCn1c(N)c(N(C)C(=O)c2ccc(-n3cccn3)cc2)c(=O)[nH]c1=O`, the concentration at half-maximal activity (AC50) reads like this: under setting [1], 29.1 µM [falling, single point]; under setting [2], 29.1 µM [rising, partial curve, poor fit]. Regarding `CC(=O)NCc1ccc(C(=O)CCl)cc1`, the concentration at half-maximal activity (AC50) under setting [1] is 35.5 µM [falling, single point].

In the case of `Cc1ccc(-n2nc(C(=O)O)cc2-c2ccccc2Cl)cc1`, the AC50 under setting [1] is 10 µM [rising, partial curve, poor fit]. On the same count and under the same terms, for `O=C(CSc1nc2ccccc2[nH]1)Nc1nc(-c2cccc(Br)c2)cs1` the value was 5.17 µM [rising, full curve, poor fit]; for `Cc1cc(NC(=O)c2ccc(F)cc2)n(-c2ccccc2)n1`, 15.8 µM [rising, single point].

As for `O=C(Nc1cccc(S(=O)(=O)NC2=NCCC2)c1)c1ccc(=O)[nH]c1`, the AC50 under setting [1] was 6.51 µM [rising, single point]. `O=C(NCC(c1cccs1)N1CCOCC1)c1ccccc1NS(=O)(=O)c1ccc(Cl)c([N+](=O)[O-])c1` (stereo unspecified): under setting [1], the half-maximal activity concentration (AC50) was 8.2 µM [falling, partial curve, poor fit]. In the case of `CC1=C(C(=O)OC2CCCCCCC2)C(c2cccc(O)c2)NC(=O)N1` (stereo unspecified), the AC50 under setting [1] was 0.461 µM [falling, full curve, poor fit]. Turning to `CSc1nnc(-c2cc3c(-c4ccccc4)nn(C)c3s2)n1C`, the AC50 under setting [1] was 3.55 µM [falling, full curve, poor fit]. Consider `Nc1cc(Oc2ccc(Cl)cc2Cl)nc(N)n1`, for which, under setting [1], the half-maximal activity concentration (AC50) is 15.8 µM [rising, partial curve, poor fit].

As for `COC(c1ccccc1)c1nnc(CCC(=O)N2CCCCCCC2)o1` (stereo unspecified), the AC50 under setting [2] was 12.6 µM [rising, partial curve, poor fit]. With `N#C/C(=C\c1ccc2c(c1)OCCO2)C(=O)Nc1ccc(C(=O)O)cc1`, the half-maximal activity concentration (AC50) under setting [1] is 2.82 µM [falling, full curve].
